The values that follow come from patent US20030100094.

The test system of this series is R.BbvCI (R1+:R2+) (Bacillus brevis). The series is described as follows: enzyme reaction in vitro. The conditions noted are these: double-strand cleavage; NEBuffer 4 (10 mM Mg), 37 C; purified recombinant protein; only the site is given.

For at least one entry, the source does not settle the construct or the ends of the probe.

For the sequence “CCTCAGC (double strand) [supercoiled pUB plasmid (two BbvCI sites, one EcoRI site)]”, the “activity on this sequence” value is on record as “active”.
